Where “and” joins values, the source holds several entries; their conditions need not be identical. Equal values may be shown once. The source gives many values for each of these; only a part stands here.
Test: Pharmacokinetic and drug-drug interaction studies in blood-fed mosquitoes (concentration-time courses, population PK modelling)
Settings: IVM (0.1 µg/ml) in human blood, Batch 4, individual mosquitoes, listed as IVM

CCC(C)C1OC2(CCC1C)CC1CC(CC=C(C)C(OC3CC(OC)C(OC4CC(OC)C(O)C(C)O4)C(C)O3)C(C)C=CC=C3COC4C(O)C(C)=CC(C(=O)O1)C34O)O2 (centres unmarked) [ivermectin]
Ivermectin concentration in single mosquito (48 h post feeding): 0.003 ng/mg msq (4×) and 0.059 ng/mg msq and 0.062 ng/mg msq and 0.024 ng/mg msq and 0.018 ng/mg msq (2×) and 0.012 ng/mg msq and 0.026 ng/mg msq and 0.035 ng/mg msq and 0.057 ng/mg msq and 0.009 ng/mg msq and 0.022 ng/mg msq and 0.032 ng/mg msq and 0.039 ng/mg msq and 0.002 ng/mg msq and 0.054 ng/mg msq and 0.045 ng/mg msq | Ivermectin concentration in single mosquito (72 h post feeding): 0.007 ng/mg msq (2×) and 0.005 ng/mg msq (4×) and 0.009 ng/mg msq and 0.006 ng/mg msq (2×) and 0.003 ng/mg msq (7×) and 0.002 ng/mg msq (3×) and 0.004 ng/mg msq

From article PMC7968666, “The pharmacokinetics and drug-drug interactions of ivermectin in Aedes aegypti mosquitoes” (PLoS Pathogens, 2021)
